Assay results reported in publication PMC5114397.
These are yes or no findings as the source states them, for the method shown. In cells and extracts the contact can be indirect. Some results given as binding are weak or reduced against the parent protein; the word gives no strength. Tags and fused reporters may be left off the sequences shown.

Protein sequences, listed by entry. Tags and fused reporters are not part of them.
UniProt Q96QZ7: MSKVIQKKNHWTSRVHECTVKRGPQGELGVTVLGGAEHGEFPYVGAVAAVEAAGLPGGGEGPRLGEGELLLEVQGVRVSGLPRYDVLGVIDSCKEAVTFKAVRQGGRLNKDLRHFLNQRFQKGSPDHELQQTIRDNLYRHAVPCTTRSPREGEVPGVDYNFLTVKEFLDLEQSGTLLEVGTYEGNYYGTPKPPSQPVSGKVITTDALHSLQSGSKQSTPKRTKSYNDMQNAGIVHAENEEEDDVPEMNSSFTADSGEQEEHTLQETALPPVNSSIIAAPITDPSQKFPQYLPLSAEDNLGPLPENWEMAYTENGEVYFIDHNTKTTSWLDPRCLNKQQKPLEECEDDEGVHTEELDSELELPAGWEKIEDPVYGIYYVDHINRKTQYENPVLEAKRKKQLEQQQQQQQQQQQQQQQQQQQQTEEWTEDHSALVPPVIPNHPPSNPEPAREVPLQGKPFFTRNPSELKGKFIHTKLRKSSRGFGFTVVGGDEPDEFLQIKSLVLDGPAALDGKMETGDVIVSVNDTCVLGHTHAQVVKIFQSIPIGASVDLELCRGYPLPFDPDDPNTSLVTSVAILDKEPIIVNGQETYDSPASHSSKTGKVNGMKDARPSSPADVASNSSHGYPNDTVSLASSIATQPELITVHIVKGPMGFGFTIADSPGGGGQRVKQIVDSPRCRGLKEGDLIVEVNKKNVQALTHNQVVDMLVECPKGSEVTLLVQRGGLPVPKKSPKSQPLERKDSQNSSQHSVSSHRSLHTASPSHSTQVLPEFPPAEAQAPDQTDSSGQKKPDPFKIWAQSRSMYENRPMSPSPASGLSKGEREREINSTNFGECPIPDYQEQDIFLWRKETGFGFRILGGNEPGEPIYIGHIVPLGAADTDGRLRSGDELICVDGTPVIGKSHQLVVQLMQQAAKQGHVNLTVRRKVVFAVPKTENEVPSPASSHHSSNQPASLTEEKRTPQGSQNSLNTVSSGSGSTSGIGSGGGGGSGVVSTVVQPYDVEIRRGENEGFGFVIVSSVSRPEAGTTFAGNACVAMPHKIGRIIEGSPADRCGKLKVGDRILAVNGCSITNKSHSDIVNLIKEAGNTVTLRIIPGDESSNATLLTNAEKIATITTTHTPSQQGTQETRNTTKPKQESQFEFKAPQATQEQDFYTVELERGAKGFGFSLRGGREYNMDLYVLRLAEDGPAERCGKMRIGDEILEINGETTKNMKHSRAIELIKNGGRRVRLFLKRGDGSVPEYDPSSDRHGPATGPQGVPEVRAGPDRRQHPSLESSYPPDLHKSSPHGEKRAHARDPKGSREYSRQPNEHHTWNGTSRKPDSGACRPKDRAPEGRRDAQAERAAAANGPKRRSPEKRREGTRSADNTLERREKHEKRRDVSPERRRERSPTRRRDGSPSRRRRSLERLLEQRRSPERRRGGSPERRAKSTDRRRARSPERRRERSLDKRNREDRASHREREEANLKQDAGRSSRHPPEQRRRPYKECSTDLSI

Molecular target: Myc-MAGI-1 (membrane-associated guanylate kinase 1) (UniProt Q96QZ7)
Experiment: co-IP; 293T cells doubly transfected with a Myc-tagged bait and a FLAG-tagged prey; total cellular lysates incubated with Myc beads overnight at 4 °C, beads washed three times and boiled; Western blot with anti-FLAG M2

| binding | Binder |
| --- | --- |
| binds | FLAG-tagged nephrin (protein, UniProt O60500 23-1241) QLAIPASVPRGFWALPENLTVVEGASVELRCGVSTPGSAVQWAKDGLLLGPDPRIPGFPRYRLEGDPARGEFHLHIEACDLSDDAEYECQVGRSEMGPELVSPRVILSILVPPKLLLLTPEAGTMVTWVAGQEYVVNCVSGDAKPAPDITILLSGQTISDISANVNEGSQQKLFTVEATARVTPRSSDNRQLLVCEASSPALEAPIKASFTVNVLFPPGPPVIEWPGLDEGHVRAGQSLELPCVARGGNPLATLQWLKNGQPVSTAWGTEHTQAVARSVLVMTVRPEDHGAQLSCEAHNSVSAGTQEHGITLQVTFPPSAIIILGSASQTENKNVTLSCVSKSSRPRVLLRWWLGWRQLLPMEETVMDGLHGGHISMSNLTFLARREDNGLTLTCEAFSEAFTKETFKKSLILNVKYPAQKLWIEGPPEGQKLRAGTRVRLVCLAIGGNPEPSLMWYKDSRTVTESRLPQESRRVHLGSVEKSGSTFSRELVLVTGPSDNQAKFTCKAGQLSASTQLAVQFPPTNVTILANASALRPGDALNLTCVSVSSNPPVNLSWDKEGERLEGVAAPPRRAPFKGSAAARSVLLQVSSRDHGQRVTCRAHSAELRETVSSFYRLNVLYRPEFLGEQVLVVTAVEQGEALLPVSVSANPAPEAFNWTFRGYRLSPAGGPRHRILSSGALHLWNVTRADDGLYQLHCQNSEGTAEARLRLDVHYAPTIRALQDPTEVNVGGSVDIVCTVDANPILPGMFNWERLGEDEEDQSLDDMEKISRGPTGRLRIHHAKLAQAGAYQCIVDNGVAPPARRLLRLVVRFAPQVEHPTPLTKVAAAGDSTSSATLHCRARGVPNIVFTWTKNGVPLDLQDPRYTEHTYHQGGVHSSLLTIANVSAAQDYALFTCTATNALGSDQTNIQLVSISRPDPPSGLKVVSLTPHSVGLEWKPGFDGGLPQRFCIRYEALGTPGFHYVDVVPPQATTFTLTGLQPSTRYRVWLLASNALGDSGLADKGTQLPITTPGLHQPSGEPEDQLPTEPPSGPSGLPLLPVLFALGGLLLLSNASCVGGVLWQRRLRRLAEGISEKTEAGSEEDRVRNEYEESQWTGERDTQSSTVSTTEAEPYYRSLRDFSPQLPPTQEEVSYSRGFTGEDEDMAFPGHLYDEVERTYPPSGAWGPLYDEVQMGPWDLHWPEDTYQDPRGIYDQVAGDLDTLEPDSLPFELRGHLV |
| binds | FLAG-tagged neph1 (protein, UniProt Q96J84 17-757) QGTQTRFSQEPADQTVVAGQRAVLPCVLLNYSGIVQWTKDGLALGMGQGLKAWPRYRVVGSADAGQYNLEITDAELSDDASYECQATEAALRSRRAKLTVLIPPEDTRIDGGPVILLQAGTPHNLTCRAFNAKPAATIIWFRDGTQQEGAVASTELLKDGKRETTVSQLLINPTDLDIGRVFTCRSMNEAIPSGKETSIELDVHHPPTVTLSIEPQTVQEGERVVFTCQATANPEILGYRWAKGGFLIEDAHESRYETNVDYSFFTEPVSCEVHNKVGSTNVSTLVNVHFAPRIVVDPKPTTTDIGSDVTLTCVWVGNPPLTLTWTKKDSNMVLSNSNQLLLKSVTQADAGTYTCRAIVPRIGVAEREVPLYVNGPPIISSEAVQYAVRGDGGKVECFIGSTPPPDRIAWAWKENFLEVGTLERYTVERTNSGSGVLSTLTINNVMEADFQTHYNCTAWNSFGPGTAIIQLEEREVLPVGIIAGATIGASILLIFFFIALVFFLYRRRKGSRKDVTLRKLDIKVETVNREPLTMHSDREDDTASVSTATRVMKAIYSSFKDDVDLKQDLRCDTIDTREEYEMKDPTNGYYNVRAHEDRPSSRAVLYADYRAPGPARFDGRPSSRLSHSSGYAQLNTYSRGPASDYGPEPTPPGPAAPAGTDTTSQLSYENYEKFNSHPFPGAAGYPTYRLGYPQAPPSGLERTPYEAYDPIGKYATATRFSYTSQHSDYGQRFQQRMQTHV |
